Measured values from doi:10.1101/870998.
These are yes or no findings as the source states them, for the method shown. In cells and extracts the contact can be indirect. Some binding calls cover weakened binding; strength is not graded here. Sequences can lack the tags named with a protein. One block for each molecule: values may come before it.

Protein sequences, listed by entry. Tags and fused reporters are not part of them.
UniProt Q15691: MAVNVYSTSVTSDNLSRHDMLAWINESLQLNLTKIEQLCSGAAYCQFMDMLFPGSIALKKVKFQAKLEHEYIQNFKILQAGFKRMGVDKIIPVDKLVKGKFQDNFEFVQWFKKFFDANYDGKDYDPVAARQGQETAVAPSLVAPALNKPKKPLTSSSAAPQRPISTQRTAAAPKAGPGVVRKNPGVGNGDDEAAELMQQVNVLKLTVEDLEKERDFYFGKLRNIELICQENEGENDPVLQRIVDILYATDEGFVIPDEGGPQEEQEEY

How the values were obtained:
Assay in all cases: co-IP
GFP-iASPP-RARA = target: T1, GFP-iASPP-RARA (UniProt Q8WUF5)
T1 sequence: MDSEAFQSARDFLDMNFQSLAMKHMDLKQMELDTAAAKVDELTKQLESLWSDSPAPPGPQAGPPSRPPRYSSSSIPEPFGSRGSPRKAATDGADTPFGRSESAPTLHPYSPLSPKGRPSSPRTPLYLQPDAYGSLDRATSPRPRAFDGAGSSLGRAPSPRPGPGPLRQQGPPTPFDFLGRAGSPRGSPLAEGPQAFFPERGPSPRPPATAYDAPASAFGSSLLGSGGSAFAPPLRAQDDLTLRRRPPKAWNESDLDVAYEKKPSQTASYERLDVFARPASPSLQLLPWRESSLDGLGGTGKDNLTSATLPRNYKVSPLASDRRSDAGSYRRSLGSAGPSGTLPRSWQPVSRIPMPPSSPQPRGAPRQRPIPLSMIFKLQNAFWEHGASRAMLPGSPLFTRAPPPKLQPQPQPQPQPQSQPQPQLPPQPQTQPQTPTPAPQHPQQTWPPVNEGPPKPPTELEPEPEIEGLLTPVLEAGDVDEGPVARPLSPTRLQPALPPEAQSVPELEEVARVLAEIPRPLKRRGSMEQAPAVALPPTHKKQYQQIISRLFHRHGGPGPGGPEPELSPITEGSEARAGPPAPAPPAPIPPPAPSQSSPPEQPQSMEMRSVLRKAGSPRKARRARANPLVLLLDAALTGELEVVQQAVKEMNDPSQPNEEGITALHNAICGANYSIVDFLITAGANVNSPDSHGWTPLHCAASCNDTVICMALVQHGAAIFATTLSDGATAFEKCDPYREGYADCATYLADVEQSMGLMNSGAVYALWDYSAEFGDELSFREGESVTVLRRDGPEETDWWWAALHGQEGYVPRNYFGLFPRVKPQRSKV

[1] = target: T2, GFP-iASPP Ank-SH3 (629-828) (UniProt Q8WUF5)
T2 sequence: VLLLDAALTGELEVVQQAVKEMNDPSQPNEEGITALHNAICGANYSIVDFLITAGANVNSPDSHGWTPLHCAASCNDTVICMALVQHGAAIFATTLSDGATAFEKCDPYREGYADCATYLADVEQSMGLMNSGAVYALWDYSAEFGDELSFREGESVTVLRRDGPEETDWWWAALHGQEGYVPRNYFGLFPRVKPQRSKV

[2] = target: T3, GFP-iASPP C-terminal region (Cter, 600-828) (UniProt Q8WUF5)
T3 sequence: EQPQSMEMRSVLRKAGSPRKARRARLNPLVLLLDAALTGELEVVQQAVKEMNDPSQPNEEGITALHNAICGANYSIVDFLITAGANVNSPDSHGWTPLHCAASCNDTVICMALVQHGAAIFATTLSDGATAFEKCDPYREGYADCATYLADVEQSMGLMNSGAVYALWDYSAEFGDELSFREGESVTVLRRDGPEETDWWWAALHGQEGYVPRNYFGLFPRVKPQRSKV

GFP-iASPP 1-599 = target: T4, GFP-iASPP 1-599 (UniProt Q8WUF5)
T4 sequence: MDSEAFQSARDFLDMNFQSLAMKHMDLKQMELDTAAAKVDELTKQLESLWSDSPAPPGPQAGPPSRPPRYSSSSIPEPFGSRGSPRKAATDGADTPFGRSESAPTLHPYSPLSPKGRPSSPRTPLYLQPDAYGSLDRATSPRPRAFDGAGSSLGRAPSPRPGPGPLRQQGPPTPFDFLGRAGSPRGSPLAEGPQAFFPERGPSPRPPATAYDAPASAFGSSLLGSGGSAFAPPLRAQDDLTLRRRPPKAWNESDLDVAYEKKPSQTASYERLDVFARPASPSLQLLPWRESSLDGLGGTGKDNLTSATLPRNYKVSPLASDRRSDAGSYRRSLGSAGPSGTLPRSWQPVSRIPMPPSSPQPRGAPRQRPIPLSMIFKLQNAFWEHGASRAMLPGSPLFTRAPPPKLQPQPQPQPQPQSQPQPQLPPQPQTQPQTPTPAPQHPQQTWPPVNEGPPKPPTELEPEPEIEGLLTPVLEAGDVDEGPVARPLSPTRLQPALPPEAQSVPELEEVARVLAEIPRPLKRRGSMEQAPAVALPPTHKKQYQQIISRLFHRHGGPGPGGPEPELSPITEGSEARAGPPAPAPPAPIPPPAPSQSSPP

GFP-iASPP 1-628 = target: T5, GFP-iASPP 1-628 (UniProt Q8WUF5)
T5 sequence: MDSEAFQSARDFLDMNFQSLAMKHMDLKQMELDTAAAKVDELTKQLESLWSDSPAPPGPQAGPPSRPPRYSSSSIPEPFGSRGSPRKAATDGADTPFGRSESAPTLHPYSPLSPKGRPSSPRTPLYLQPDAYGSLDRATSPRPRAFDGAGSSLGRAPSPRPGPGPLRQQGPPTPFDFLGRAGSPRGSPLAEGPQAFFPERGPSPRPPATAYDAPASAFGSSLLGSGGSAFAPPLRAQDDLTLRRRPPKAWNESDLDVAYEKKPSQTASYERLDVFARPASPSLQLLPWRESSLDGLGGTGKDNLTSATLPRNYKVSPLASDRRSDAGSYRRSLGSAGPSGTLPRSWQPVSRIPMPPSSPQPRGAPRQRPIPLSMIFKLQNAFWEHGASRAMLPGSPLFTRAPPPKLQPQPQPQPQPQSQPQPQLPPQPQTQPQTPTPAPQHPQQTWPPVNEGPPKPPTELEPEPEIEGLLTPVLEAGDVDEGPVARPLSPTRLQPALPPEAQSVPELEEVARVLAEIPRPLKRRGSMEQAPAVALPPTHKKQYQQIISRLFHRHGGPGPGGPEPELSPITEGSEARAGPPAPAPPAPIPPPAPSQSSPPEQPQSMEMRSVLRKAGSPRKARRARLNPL

GFP-iASPP 1-290 = target: T6, GFP-iASPP 1-290 (UniProt Q8WUF5)
T6 sequence: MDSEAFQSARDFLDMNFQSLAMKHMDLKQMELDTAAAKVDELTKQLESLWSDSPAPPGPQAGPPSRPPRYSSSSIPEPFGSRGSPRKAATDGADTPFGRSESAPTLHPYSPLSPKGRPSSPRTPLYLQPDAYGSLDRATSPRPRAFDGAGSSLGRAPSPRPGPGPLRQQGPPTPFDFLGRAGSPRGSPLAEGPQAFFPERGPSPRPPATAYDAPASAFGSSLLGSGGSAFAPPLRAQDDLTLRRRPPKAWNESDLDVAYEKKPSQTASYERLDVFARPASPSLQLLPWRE

binding (GFP-iASPP-RARA): binds
Molecule: EB1 (endogenous) (from UniProt Q15691 1-268)

binding [1]: binds
binding [2]: binds
B1: SF-iASPP 1-628 (domain or fragment, UniProt Q8WUF5 1-628)
chain: T5 sequence

binding (GFP-iASPP 1-599): binds
binding (GFP-iASPP 1-628): binds
B2: SF-iASPP 600-828 (domain or fragment, UniProt Q8WUF5 600-828)
chain: T3 sequence

binding [1]: binds weakly
B3: SF-iASPP 1-290 (domain or fragment, UniProt Q8WUF5 1-290)
chain: T6 sequence

binding (GFP-iASPP 1-290): binds weakly
binding (GFP-iASPP 1-599): binds
binding (GFP-iASPP 1-628): binds
B4: SF-iASPP 629-828 (domain or fragment, UniProt Q8WUF5 629-828)
chain: T2 sequence

binding [1]: binds
binding [2]: binds
B5: SF-iASPP 1-599 (domain or fragment, UniProt Q8WUF5 1-599)
chain: T4 sequence
